Laboratory results taken from patent US20250127755A1, “PHARMACOLOGICAL DEPLETION OF HEME FOR THE TREATMENT OF MYELODYSPLASTIC SYNDROME” (THE SCRIPPS RESEARCH INSTITUTE, priority 2021, published 2025).
At least one structure is not confirmed: it was looked up by name or label, or the drawing left a doubt.

System: MDS-L cells
Experiment: MDS-L differentiation assay (GlyA positivity, 384-well FACS-based)
Details: 384-well FACS-based assay
Experimental: MDS-L differentiation assay. Given a limited number of patient samples and the low yield from each biopsy, it is not tractable to conduct high-throughput screens with primary cells.
To establish a screening assay, we selected known differentiation inducers of acute myeloid leukemia cells including retinoic acid (ATRA), Brequinar, and phorbol 12-myristate 13-acetate (PMA).
MDS-L were cultured in RPMI (17-105-CV, Corning) without phenol red and supplemented with 2 mM glutamine and 10% FBS. Cells first expanded in IL-3 until 70% confluence then pre-conditioned for 14 days with IL-3 (200-03, PeproTech), GCSF (300-23, PeproTech), and EPO (287-TC, R&D Systems) to promote erythroid and myeloid differentiation. A density of 10000 cells per well were used in phenotypic assays. MDSL cells were spun and treatment media was replaced with media containing APC Anti-CD235a (GlyA) (551336. BD Biosciences) (1.25 μL per 50 μL test) and incubated for 1 hour at 4° C. Cells were washed then counter stained with SYTOX-Green 1 μM per 100 μL prior to flow cytometry, analysis. Dose response and pharmacological assays were analyzed using a ZE5 Cell Analyzer (BioRad) equipped with Everest software. Single, live, cells were analyzed for GlyA expression using FlowJo v10.7.2 software.

CC1=C(/C=C/C(C)=C/C=C/C(C)=C/C(=O)O)C(C)(C)CCC1 [ATRA, retinoic acid]
inducing differentiation to more terminal blood lineages (GlyA immunopositivity): highly efficacious
